Changes are numbered by the printed parent chain. Read-outs that look alike come from different tables or passages of the source. These are yes or no findings as the source states them, for the method shown. For part of these data: In cells and extracts the contact can be indirect. Some entries that bind do so weakly or less than the wild type. For part of these data: Sequences can lack the tags named with a protein.
Assays:
[1] = target: T1, TMIGD1/WT expressed in HEK293T cells (co-IPs with E3KARP, EBP50 and ezrin) (human) (UniProt Q6UXZ0); test: co-IP
T1 sequence: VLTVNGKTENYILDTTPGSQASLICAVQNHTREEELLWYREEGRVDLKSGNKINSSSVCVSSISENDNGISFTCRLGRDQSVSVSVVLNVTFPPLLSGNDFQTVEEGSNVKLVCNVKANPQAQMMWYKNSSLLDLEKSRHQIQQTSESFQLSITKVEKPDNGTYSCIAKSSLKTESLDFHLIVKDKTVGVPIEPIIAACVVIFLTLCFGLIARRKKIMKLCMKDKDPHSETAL

Amino acid sequences for entries named in this document (tags omitted). Residues count along the entry.
UniProt Q15599: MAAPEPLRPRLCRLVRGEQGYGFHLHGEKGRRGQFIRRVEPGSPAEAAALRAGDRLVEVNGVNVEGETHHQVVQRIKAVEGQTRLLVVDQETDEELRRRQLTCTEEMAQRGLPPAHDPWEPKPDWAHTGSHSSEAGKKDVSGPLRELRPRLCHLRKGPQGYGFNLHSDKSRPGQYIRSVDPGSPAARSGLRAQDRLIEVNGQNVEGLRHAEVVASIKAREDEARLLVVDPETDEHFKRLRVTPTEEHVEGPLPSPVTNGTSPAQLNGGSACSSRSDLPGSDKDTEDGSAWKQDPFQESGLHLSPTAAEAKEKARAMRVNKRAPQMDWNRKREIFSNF
UniProt Q9JHL1, residues 140-307: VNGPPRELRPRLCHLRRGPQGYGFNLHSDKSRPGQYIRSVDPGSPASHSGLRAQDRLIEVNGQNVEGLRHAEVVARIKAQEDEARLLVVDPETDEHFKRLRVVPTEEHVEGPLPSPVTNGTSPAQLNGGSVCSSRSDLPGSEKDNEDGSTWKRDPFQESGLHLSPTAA

[2] = target: GST-TMIGD1 (hTMIGD1 cytoplasmic tail, AA 242-262) (human) (UniProt Q6UXZ0); test: pull-down
[3] = target: LexA-TMIGD1 cytoplasmic tail (pBTM116-TMIGD1, AA 241-262) (human) (UniProt Q6UXZ0); test: two-hybrid
[4] = target: T1, TMIGD1/WT expressed in HEK293T cells (co-IPs with E3KARP, EBP50 and ezrin) (human); test: co-IP; remark: listed apart in the source
[5] = target: T2, Flag-EGFP-TMIGD1 (EGFP-hTMIGD1, AA 30-262, EGFP inserted between AA211 and AA212 of TMIGD1) (human) (UniProt Q6UXZ0); test: co-IP
T2 sequence: T1 sequence

For “hEBP50_S162A (AA 1-358_S162A) expressed in HEK293T cells (from UniProt O14745 1-358)”, the binding [1] was “binds”.

In the case of “hE3KARP full length (E3KARP/WT, AA 2-337), expressed in HEK293T cells (from UniProt Q15599 1-337)”, the binding [2] is reported as “binds” and the binding [1] is reported as “binds”.

For “murine E3KARP/NHERF2 cDNA fragment AA 140-307 (yeast two-hybrid library clone) (from UniProt Q9JHL1 140-307) (domain or fragment)”, the binding [3] was “binds”.

B1: hEBP50 with mutated PDZ domain 1 (hEBP50_P1M, AA 1-358_G25AF26A) expressed in HEK293T cells (protein, UniProt O14745 1-358)
chain: MSADAAAGAPLPRLCCLEKGPNGYAAHLHGEKGKLGQYIRLVEPGSPAEKAGLLAGDRLVEVNGENVEKETHQQVVSRIRAALNAVRLLVVDPETDEQLQKLGVQVREELLRAQEAPGQAEPPAAAEVQGAGNENEPREADKSHPEQRELRPRLCTMKKGPSGYGFNLHSDKSKPGQFIRSVDPDSPAEASGLRAQDRIVEVNGVCMEGKQHGDVVSAIRAGGDETKLLVVDRETDEFFKKCRVIPSQEHLNGPLPVPFTNGEIQKENSREALAEAALESPRPALVRSASSDTSEELNSQDSPPKQDSTAPSSTSSSDPILDFNISLAMAKERAHQKRSSKRAPQMDWSKKNELFSNL
For B1, the binding [4] was “binds weakly”.

B2: hEBP50 with mutated PDZ domain 2 (hEBP50_P2M, AA 1-358_G165AF166A) expressed in HEK293T cells (protein, UniProt O14745 1-358)
chain: B1 chain with A25G, A26F, G165A, F166A
B2 was tested, and the binding [4] was “binds weakly”.

B3: hEBP50_S280AS302A (AA 1-358_S280AS302A) expressed in HEK293T cells (protein, UniProt O14745 1-358)
chain: B1 chain with A25G, A26F, S280A, S302A
B3 was tested, and the binding [4] was “binds”.

B4: hEBP50_S339AS340A (AA 1-358_S339AS340A) expressed in HEK293T cells (protein, UniProt O14745 1-358)
chain: B1 chain with A25G, A26F, S339A, S340A
With B4 the binding [4] was “binds”.

B5: untagged hTMIGD1 full length (TMIGD1/WT, AA 1-262, pcDNA3) expressed in HEK293T cells (protein, UniProt Q6UXZ0 30-262)
chain: T1 sequence
In the case of B5, the binding [5] is reported as “binds”.

Source: paper doi:10.1101/2021.01.25.428038 (bioRxiv, 2021)
